We go through 3 molecules from PubChem BioAssay AID2252 (Southern Research Specialized Biocontainment Screening …, 2010).

SMILES strings stand for the structures. “And” between values parts separate entries of the source, which are not always exact repeats. Equal entries are not always repeated. Hit rate of the full screen: of about 2,300 compounds, about 1,500 (65%) were called active. The rule behind the calls is not given here. The set was probably picked from earlier hits. Only a part is listed here, and it is no random draw.

A short description of this assay: PubChem AID 2252.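 Note: 100% = mean of untreated cell control wells.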 Conditions: THP-1 viability, CellTiter-Glo luminescence, 72 h; at 50 µM (top of the series).
As for `CN(C)[C@@H]1C(=O)C(C(N)=O)=C(O)[C@@]2(O)C(=O)C3=C(O)c4c(O)cccc4[C@@](C)(O)C3[C@H](O)C12` (stereo partly drawn), the viability was inactive: 83.1% and inactive: 99.3%. For `CO[C@H]1/C=C/O[C@@]2(C)Oc3c(C)c(O)c4c(O)c(c(C=NN5CCN(C)CC5)c(O)c4c3C2=O)NC(=O)/C(C)=C\C=C\[C@H](C)[C@H](O)[C@@H](C)[C@@H](O)[C@@H](C)[C@H](OC(C)=O)[C@@H]1C` the value was inactive: 81.3%. Regarding `CN1CCN(c2c(F)cc3c(=O)c(C(=O)O)cn4c3c2SCC4)CC1`, the viability is inactive: 81%.
